Taken from: PubChem BioAssay AID504774 (Drosophila RNAi Screening Center, 2011)
Assay: 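Genes required for cells to withstand methyl methanesulphonate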 (primary screen). Cell system: Drosophila Kc167 cells. Reagent: long dsRNA against Drosophila genes, about 0.25 µg dsRNA per well. Duration: about 6 days: 3 days knock-down, then 3 days with or without MMS. Conditions: methyl methanesulphonate 0.004% (w/v) for 3 days after knock-down. Detection: 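ATP-dependent luminescence as a measure of live cells in MMS-exposed wells, quantile normalised within each plate, with replicate values also given as a mean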. Reading the numbers: mean viability with MMS and viability with MMS: higher = more surviving cells after MMS.
In all, the deposit lists about 23,000 reagents; this is an unselected part of those with a known target gene and a result. 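Values are quantile-normalised luminescence on an arbitrary scale; higher means more cells surviving MMS.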 Reagents against one gene are numbered here. A plus sign joins genes that one reagent is predicted to hit. Further read-outs or replicates are left out here.

CG5727 scored mean viability with MMS 3.86e6; viability with MMS, replicate 1 = 4.53e6.
With knock-down of CG15194 (retired record) #1, the record shows mean viability with MMS 3.91e6; viability with MMS, replicate 1 = 4.40e6.
CG15194 (retired record) #2 gave mean viability with MMS 3.61e6; viability with MMS, replicate 1 = 3.94e6.
With knock-down of CG4364 the results were mean viability with MMS 3.43e6; viability with MMS, replicate 1 = 3.87e6.
For rhi (rhino), the entry reads mean viability with MMS 3.41e6; viability with MMS, replicate 1 = 3.77e6.
For CG8534, the values are mean viability with MMS 3.59e6; viability with MMS, replicate 1 = 4.03e6.
Knock-down of Femcoat resulted in: mean viability with MMS 3.70e6; viability with MMS, replicate 1 = 4.20e6.
With knock-down of sac (sterile affecting ciliogenesis), the record shows mean viability with MMS 3.58e6; viability with MMS, replicate 1 = 4.03e6.
After knock-down of CG15617 the results were mean viability with MMS 3.51e6; viability with MMS, replicate 1 = 4.07e6.
With knock-down of CG8664, the record shows mean viability with MMS 3.37e6; viability with MMS, replicate 1 = 3.82e6.
RpL7A (Ribosomal protein L7A) scored mean viability with MMS 3.06e6; viability with MMS, replicate 1 = 3.49e6.
CG33278 scored mean viability with MMS 3.47e6; viability with MMS, replicate 1 = 3.90e6.
Against CG31793 the deposit lists mean viability with MMS 3.82e6; viability with MMS, replicate 1 = 4.32e6.
Depletion of CG30121 (retired record) resulted in: mean viability with MMS 3.63e6; viability with MMS, replicate 1 = 4.09e6.
Silencing of Cyp313a3 (Cytochrome P450 313a3) gave: mean viability with MMS 3.66e6; viability with MMS, replicate 1 = 4.13e6.
For CG2964 the deposit lists mean viability with MMS 3.39e6; viability with MMS, replicate 1 = 3.85e6.
For CG41099 #1, the values are mean viability with MMS 3.63e6; viability with MMS, replicate 1 = 4.18e6.
CG41099 #2 showed mean viability with MMS 3.60e6; viability with MMS, replicate 1 = 4.09e6.
Depletion of CG32221 gave: mean viability with MMS 3.53e6; viability with MMS, replicate 1 = 4.06e6.
Knock-down of bora (aurora borealis) gave: mean viability with MMS 3.48e6; viability with MMS, replicate 1 = 3.96e6.
For CG31431, the entry reads mean viability with MMS 3.52e6; viability with MMS, replicate 1 = 4.13e6.
For tbrd-2 the deposit lists mean viability with MMS 3.45e6; viability with MMS, replicate 1 = 3.92e6.
c11.1 gave mean viability with MMS 3.47e6; viability with MMS, replicate 1 = 3.92e6.
Acox57D-d (acyl-Coenzyme A oxidase at 57D distal) showed mean viability with MMS 3.53e6; viability with MMS, replicate 1 = 3.69e6.
Zpr1 scored mean viability with MMS 2.99e6; viability with MMS, replicate 1 = 3.98e6.
Silencing of CG30058 + CG34235 + CG34312 gave: mean viability with MMS 3.54e6; viability with MMS, replicate 1 = 4.08e6.
Knock-down of Prosbeta1 (Proteasome beta1 subunit) resulted in: mean viability with MMS 2.77e6; viability with MMS, replicate 1 = 3.50e6.
CG41520 #1 scored mean viability with MMS 3.66e6; viability with MMS, replicate 1 = 4.09e6.
With knock-down of CG41520 #2, the record shows mean viability with MMS 3.46e6; viability with MMS, replicate 1 = 3.94e6.
nw (narrow) #1 showed mean viability with MMS 3.72e6; viability with MMS, replicate 1 = 4.22e6.
nw (narrow) #2 showed mean viability with MMS 3.47e6; viability with MMS, replicate 1 = 3.90e6.
Depletion of CG30158 #1 came out at: mean viability with MMS 3.59e6; viability with MMS, replicate 1 = 4.06e6.
Depletion of CG30158 #2 came out at: mean viability with MMS 3.58e6; viability with MMS, replicate 1 = 4.09e6.
With knock-down of CG30158 #3, the record shows mean viability with MMS 3.56e6; viability with MMS, replicate 1 = 4.12e6.
CG30158 #4 gave mean viability with MMS 3.61e6; viability with MMS, replicate 1 = 4.15e6.
Graf (GTPase regulator associated with FAK) gave mean viability with MMS 3.55e6; viability with MMS, replicate 1 = 4.19e6.
After knock-down of CG11619, the screen gave mean viability with MMS 3.38e6; viability with MMS, replicate 1 = 3.85e6.
With knock-down of AOX2 (Aldehyde oxidase 2), the record shows mean viability with MMS 3.75e6; viability with MMS, replicate 1 = 4.31e6.
Depletion of Rph (Rabphilin) gave: mean viability with MMS 3.37e6; viability with MMS, replicate 1 = 3.85e6.
With knock-down of Yeti, the screen gave mean viability with MMS 3.21e6; viability with MMS, replicate 1 = 3.61e6.
Eglp1 (Entomoglyceroporin 1) gave mean viability with MMS 3.64e6; viability with MMS, replicate 1 = 4.03e6.
Against CG34447, the entry reads mean viability with MMS 3.54e6; viability with MMS, replicate 1 = 3.99e6.
After knock-down of CG15459 #1 the results were mean viability with MMS 3.63e6; viability with MMS, replicate 1 = 4.14e6.
For CG15459 #2, the values are mean viability with MMS 3.53e6; viability with MMS, replicate 1 = 4.10e6.
esn (espinas) #1 scored mean viability with MMS 3.48e6; viability with MMS, replicate 1 = 3.92e6.
Against esn (espinas) #2, the values are mean viability with MMS 3.55e6; viability with MMS, replicate 1 = 4.03e6.
